Structures can show the parent of a compound that is named as a salt. This is one part of the list. Plates or batches differ in their baseline, so values are only roughly comparable.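 The cells are HEK293 lines stably expressing B-domain-deleted factor VIII fused to Gaussia luciferase, either wild type or a misfolding-prone missense mutant. Each score is mean luminescence from triplicate wells minus the DMSO mean, divided by the DMSO standard deviation; a score of 2 or more counts as a hit, and low scores may reflect lower secretion or poorer cell viability.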
tested on: HEK293 WT BDD-FVIII-Gluc; test: secreted FVIII-Gluc luciferase Z-score vs DMSO control; higher = more FVIII-Gluc secretion; conditions: 5 µM; 24 h

Secreted FVIII-Gluc luciferase Z-score, active:
CCCCC(=O)O[C@]1(C(=O)CO)[C@@H](C)C[C@H]2[C@@H]3CCC4=CC(=O)C=C[C@]4(C)[C@@]3(F)[C@@H](O)C[C@@]21C [Betamethasone valerate (Betnovate)] 8.74

Secreted FVIII-Gluc luciferase Z-score, inactive:
CCOC(=O)[C@H](CCc1ccccc1)N[C@@H](C)C(=O)N1CCC[C@H]1C(=O)O [Enalapril maleate (Vasotec)] -2.65
C[C@]12CC[C@@H]3c4ccc(O)cc4CC[C@H]3[C@@H]1CCC2=O [Estrone] -0.532
Cc1noc(NS(=O)(=O)c2ccc(N)cc2)c1C [Sulfisoxazole] -2.68
O=C(O[C@H]1CN2CCC1CC2)N1CCc2ccccc2[C@@H]1c1ccccc1 [Solifenacin succinate] -3.53
CN1c2cc(O)c(N=NC(N)=O)cc2CC1S(=O)(=O)O (centres undefined) [Carbazochrome sodium sulfonate] 1.21
Nc1nc(=O)n([C@@H]2CS[C@H](CO)O2)cc1F [Emtricitabine (Emtriva)] -1.36
CC(=O)Nc1ccccc1 [Acetanilide (Antifebrin)] -1.49
CC(C)(OCc1nn(Cc2ccccc2)c2ccccc12)C(=O)O [Bindarit] 1.08
CO[C@H]1/C=C/O[C@@]2(C)Oc3c(C)c(O)c4c(O)c(c5c(nc6cc(C)ccn65)c4c3C2=O)NC(=O)/C(C)=C\C=C\[C@H](C)[C@H](O)[C@@H](C)[C@@H](O)[C@@H](C)[C@H](OC(C)=O)[C@@H]1C [Rifaximin (Xifaxan)] 1.44
Cn1nnc2c(C(N)=O)ncn2c1=O [Methazolastone] -1.81
NC(=O)N1c2ccccc2C=Cc2ccccc21 [Carbamazepine (Carbatrol)] -1.65
CN1CC(=O)N2[C@H](c3ccc4c(c3)OCO4)c3[nH]c4ccccc4c3C[C@@H]2C1=O [Tadalafil (Cialis)] -2.26
Cc1cc(=O)n(-c2ccccc2)n1C [Antipyrine] -1.06
C[C@]12CCC(=O)C=C1[C@@H]1C[C@@H]1[C@H]1[C@@H]3[C@@H]4C[C@@H]4[C@@]4(CCC(=O)O4)[C@@]3(C)CC[C@@H]12 [Drospirenone] -6.55
CC1Cc2ccccc2N1NC(=O)c1ccc(Cl)c(S(N)(=O)=O)c1 (centres undefined) [Indapamide (Lozol)] -4.82
CC(C)NCC(O)c1ccc(O)c(O)c1 (centres undefined) [Isoprenaline hydrochloride] 0.792
CN1CCC[C@H]1c1cccnc1 [Nicotine Ditartrate] 0.042
CCOc1ccc2nc3cc(N)ccc3c(N)c2c1 [Ethacridine lactate monohydrate] 0.314
CC[C@@H]([C@H](C)O)n1ncn(-c2ccc(N3CCN(c4ccc(OC[C@@H]5CO[C@@](Cn6cncn6)(c6ccc(F)cc6F)C5)cc4)CC3)cc2)c1=O [Posaconazole] -1.7
CCCCOc1cc(C(=O)NCCN(CC)CC)c2ccccc2n1 [Dibucaine HCL] -0.435
Nc1nc2c(ncn2COCCO)c(=O)[nH]1 [Acyclovir (Aciclovir)] 1.24
CCCNCC(O)COc1ccccc1C(=O)CCc1ccccc1 (centres undefined) [Propafenone (Rytmonorm)] -1.57
CO[C@H]1C(=O)[C@]2(C)[C@@H](OC)C[C@H]3OC[C@@]3(OC(C)=O)[C@H]2[C@H](OC(=O)c2ccccc2)[C@]2(O)C[C@H](OC(=O)[C@H](O)[C@@H](NC(=O)OC(C)(C)C)c3ccccc3)C(C)=C1C2(C)C [Cabazitaxel (Jevtana)] -10.9
CC(=O)O[C@@]12CO[C@@H]1C[C@H](O)[C@@]1(C)C(=O)[C@H](O)C3=C(C)[C@@H](OC(=O)[C@H](O)[C@@H](NC(=O)OC(C)(C)C)c4ccccc4)C[C@@](O)([C@@H](OC(=O)c4ccccc4)[C@H]21)C3(C)C [Docetaxel (Taxotere)] -3.68
CC(C(=O)O)c1cccc(C(=O)c2ccccc2)c1 (centres undefined) [Ketoprofen (Actron)] -1.65
CC(=O)OCC(CCn1cnc2cnc(N)nc21)COC(C)=O [Famciclovir (Famvir)] 0.29
C#Cc1cccc(Nc2ncnc3cc(OCCOC)c(OCCOC)cc23)c1 [Erlotinib HCl] -1.25
COC(=O)C1=CO[C@@H](O)[C@@H]2C(CO)=CC[C@H]12 [Genipin] -2.03
CCCN(CCc1cccs1)[C@H]1CCc2c(O)cccc2C1 [Rotigotine] -0.754
CC(COc1ccccc1)N(CCCl)Cc1ccccc1 (centres undefined) [Phenoxybenzamine HCl] 0.114
CCOc1ccc2nc(S(N)(=O)=O)sc2c1 [Ethoxzolamide] -0.763
CCN(CC)CCNC(C(=O)OCCC(C)C)c1ccccc1 (centres undefined) [Camylofin Chlorhydrate] 0.0508
NCCCCCC(=O)O [Aminocaproic acid (Amicar)] -1.96
CCOC(=O)CC(=O)N1CCSC1COc1ccccc1OC (centres undefined) [Moguisteine] 0.561
CN(C)CCN(Cc1ccccc1)c1ccccn1 [Tripelennamine HCl] -0.414
COc1cc2c(cc1Cc1cccc(Cl)c1F)c(=O)c(C(=O)O)cn2[C@H](CO)C(C)C [Elvitegravir (GS-9137)] -2.33
O=C1NC(=O)C(c2ccccc2)(c2ccccc2)N1 [Phenytoin (Lepitoin)] -1.73
O=C(CCCN1CCN(c2ccccn2)CC1)c1ccc(F)cc1 [Azaperone] -0.201

Nine structures out of the list, arranged by heavy-atom count, smallest number first:
Secreted FVIII-Gluc luciferase Z-score, inactive:
CN1CCC[C@H]1c1cccnc1 [Nicotine Ditartrate] 0.042
Cn1nnc2c(C(N)=O)ncn2c1=O [Methazolastone] -1.81
Nc1nc2c(ncn2COCCO)c(=O)[nH]1 [Acyclovir (Aciclovir)] 1.24
CN(C)CCN(Cc1ccccc1)c1ccccn1 [Tripelennamine HCl] -0.414
CCCN(CCc1cccs1)[C@H]1CCc2c(O)cccc2C1 [Rotigotine] -0.754
O=C(CCCN1CCN(c2ccccn2)CC1)c1ccc(F)cc1 [Azaperone] -0.201
C#Cc1cccc(Nc2ncnc3cc(OCCOC)c(OCCOC)cc23)c1 [Erlotinib HCl] -1.25
CO[C@H]1/C=C/O[C@@]2(C)Oc3c(C)c(O)c4c(O)c(c5c(nc6cc(C)ccn65)c4c3C2=O)NC(=O)/C(C)=C\C=C\[C@H](C)[C@H](O)[C@@H](C)[C@@H](O)[C@@H](C)[C@H](OC(C)=O)[C@@H]1C [Rifaximin (Xifaxan)] 1.44
CC(=O)O[C@@]12CO[C@@H]1C[C@H](O)[C@@]1(C)C(=O)[C@H](O)C3=C(C)[C@@H](OC(=O)[C@H](O)[C@@H](NC(=O)OC(C)(C)C)c4ccccc4)C[C@@](O)([C@@H](OC(=O)c4ccccc4)[C@H]21)C3(C)C [Docetaxel (Taxotere)] -3.68

Reference: the supplement of paper PMC12024529
